Data from PubChem BioAssay AID1347075 (National Center for Advancing Translational Sciences (NCATS), 2019).
Screen size: about 400,000 compounds; about 5,500 (1.4%) were called active. The inconclusive results got no clear call from the source; some entries with a clear call stand among them for comparison. The call rests on the fitted dose curve; in most records, active means well fitted cell-killing curve with a large enough effect; inconclusive means small, poorly fitted or top-dose-only effect, or effect the other way; inactive means flat fitted curve, though single readings scatter. Where the call is inconclusive, the potency comes from a doubtful curve fit.

Test: qHTS assay for MDR1-selective chemotherapeutics: Primary screen using the parental adenocarcinoma cell KB-3-1; further: nearly all actives have a fitted effect of over 60% in size
Conditions: KB-3-1 viability, CellTiter-Glo ATP luminescence, 72 h; activity change, negative = cytotoxic: at 46.1 µM (top of the series)
In short: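 72 h, 37 °C compound treatment of KB-3-1 parental cells; CellTiter-Glo added, 10 min, luminescence read. Data corrected against DMSO-only plates and normalized before curve fitting.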
On the % scale 0 is the no-effect control and ±100 the full control effect; potency means the concentration at half of the fitted maximal effect.

| SMILES | Potency | activity change, negative = cytotoxic |
| --- | --- | --- |
| CC(C)[C@H](NC(=O)c1ccc(C(C)(C)C)cc1)C(=O)Nc1nnc(C2CC2)s1 | inactive |  |
| Cc1cccc(NC(=S)NC(C)CCc2ccccc2)c1 (stereo not drawn) | inactive |  |
| C[C@H](O)[C@@H]1CN2CCc3c([nH]c4ccccc34)[C@@H]2C[C@@H]1N(C)C(=O)c1ccco1 | inconclusive: 29.1 µM [cytotoxic, single point] |  |
| O=c1c2ccccc2sc2nc(CCl)nn12 | active: 6.51 µM |  |
| COc1cccc(-c2nc(-c3ccccn3)no2)c1 | inconclusive: 20.6 µM [cytotoxic, partial curve] |  |
| COc1ccc(-c2nc(CSCC(=O)N3CCN(c4ccccc4F)CC3)c(C)o2)cc1 | inconclusive: 20.6 µM [cytotoxic, single point] |  |
| O=C1N[C@@H](c2ccccc2)COC(=O)[C@@H](Cc2ccc(F)cc2)C/C=C\C[C@H]1CC(=O)N(CCO)Cc1ccccc1 | active: 20.6 µM |  |
| Cc1cc(S(=O)(=O)Nc2c(C)nn(C)c2C)c(Cl)cc1Cl | inconclusive: 29.1 µM [cytotoxic, single point] |  |
| CCCOC(=O)CCCCCCCCC(O)CN1CCCCC1 (stereo not drawn) | inactive |  |
| CCCCN(CC)c1nc(N)c2c(N)nc(OCC)cc2c1C#N | inactive |  |
| CCN1CCN(C(=O)CSc2cc(=O)n(CC)c3ccccc23)CC1 | inconclusive: 20.6 µM [cytotoxic, partial curve, poor fit] |  |
| COc1ccc(-c2csc(NC(=O)C3CC(=O)N(c4ccc5c(c4)OCCO5)C3)n2)cc1 (stereo not drawn) | inactive |  |
| C/C(=N\NC(=O)Cc1ccc(Cl)cc1)c1ccccn1 | inconclusive: 8.2 µM [cytotoxic, partial curve, poor fit] |  |
| O=C(Nc1nc2ccccc2n1CCOc1ccccc1)c1ccco1 | inconclusive: 29.1 µM [cytotoxic, single point] |  |
| COc1ccc(N(Cc2cc3ccccc3[nH]c2=O)S(=O)(=O)c2ccc(C)cc2)cc1 | inconclusive: 0.651 µM [cytotoxic, full curve, poor fit] |  |
| CCC(C(=O)NNC(=O)c1cnccn1)c1ccccc1 (stereo not drawn) | inconclusive: 29.1 µM [cytotoxic, single point] |  |
| COc1ccc(C(=O)OCC(=O)NC2CC2)cc1 | inactive |  |
| C=CCSc1nnc(NC(=O)CSc2nc(CCC)cc(=O)[nH]2)s1 | inconclusive: 18.4 µM [cytotoxic, single point] |  |
| S=C(NCCc1ccccn1)Nc1ccc(Cl)cc1Cl | inactive |  |
| COc1ccc(OC)c(Nc2nc(-c3cccc([N+](=O)[O-])c3)nc3ccccc23)c1 | inactive |  |
| CC1=C(c2ccc(C)cc2)S(=O)(=O)NC1=NCc1ccccc1Cl | inconclusive: 20.6 µM [cytotoxic, single point] |  |
| CCc1ccc(CN2CCN(C(=O)c3ccco3)CC2)cc1 | inconclusive: 18.4 µM [cytotoxic, single point] |  |
| Cc1ccccc1C(=O)Nc1ccc(N2CCCCCC2)cc1 | inconclusive: 29.1 µM [cytotoxic, single point] |  |
| C/C(=N\NC(N)=S)c1ccc2c(c1)OCCO2 | inconclusive: 23.1 µM [cytotoxic, partial curve, poor fit] |  |
| CCOC(=O)c1c(C)oc2nc(C)nc(NCCc3ccc(C)cc3)c12 | inactive |  |

| SMILES | Potency | activity change, negative = cytotoxic |
| --- | --- | --- |
| CN(C)/C=C/C(=O)/C=C/c1cn(-c2ncc(C(F)(F)F)cc2Cl)c2ccccc12 | inconclusive: 20.6 µM [cytotoxic, single point] |  |
| O=c1[nH]c(CN2CCN(c3ccccc3)CC2)nc2scc(-c3ccccc3)c12 | inconclusive: 4.11 µM [cytotoxic, full curve] |  |
| CCCc1cc(N2CCN(c3ccccc3F)CC2)n2cnnc2n1 | inconclusive: 20.6 µM [cytotoxic, partial curve] |  |
| CCOc1ccc(C(CC(=O)O)NC(=O)COc2ccc3ccccc3c2)cc1OC (stereo not drawn) | inactive |  |
| COc1c(C=O)c2c(c(OC)c1OC)-c1ccc(OC)c(=O)cc1C(NC(C)=O)CC2 (stereo not drawn) | active: 0.0092 µM |  |
| CCOC(=O)[C@]12CCCC=C1N(Cc1ccccc1)C(=O)[C@H](CC(=O)NCCCN1CCCC1=O)C2 | inactive |  |
| N#CC1=C(N)Oc2cc(N)ccc2C1c1ccccc1 (stereo not drawn) | inconclusive: 23.1 µM [cytotoxic, single point] |  |
| O=C(CN1CCN(S(=O)(=O)c2ccc(Cl)cc2)CC1)NC(=O)NC1CCCCC1 | inconclusive: 25.9 µM [cytotoxic, single point] |  |
| COc1ccc(-c2ccc3oc(-c4ccc(OC)cc4)c(-c4ccc(OC)cc4)c3c2)cc1 | inactive |  |
| O=C(Nc1cccc(O)c1)c1cc2nc(-c3ccccc3)cc(-c3ccccc3)n2n1 | inconclusive: 18.4 µM [rising, single point] |  |
| Nc1ccc(C(=O)OCC(=O)N2c3ccccc3Sc3ccccc32)cc1[N+](=O)[O-] | inconclusive: 18.4 µM [cytotoxic, single point] |  |
| c1ccc(CCN2CCN(c3ncnc4c3cnn4-c3ccccc3)CC2)cc1 | inconclusive: 29.1 µM [cytotoxic, single point] |  |
| Cc1cc(-c2nnc(-c3cc4ccccc4oc3=O)o2)c(C)n1-c1ccccc1 | inconclusive: 14.6 µM [rising, partial curve] |  |
| COc1ccc(C(=O)/C=C/c2cccs2)c(OC(=O)c2cccc([N+](=O)[O-])c2)c1 | active: 7.31 µM |  |
| COc1ccc(NCC(=O)Nc2cccc(C(F)(F)F)c2)cc1S(=O)(=O)N1CCOCC1 | inactive |  |
| COc1ccc(NC(=O)c2c(C)nn(-c3ccccc3)c2Cl)cc1 |  | inconclusive: 7.31% |
| Cc1cccc(NC(=O)c2oc3c(c2C)C(=O)CC(C)(C)C3)n1 |  | inconclusive: 0% |
| CC(=O)Nc1cccc(C(=O)OCC(=O)N2CCC(c3ccccc3)=N2)c1 | inactive |  |
| COc1ccc(S(=O)(=O)N2CCCC2CNC(=O)C(=O)NCc2ccccc2)cc1 (stereo not drawn) | inconclusive: 18.4 µM [cytotoxic, single point] |  |
| O=C(c1ccc(CSc2nc3ccncc3[nH]2)cc1)N1CCCCCC1 | inconclusive: 23.1 µM [cytotoxic, single point] |  |
| CC(C)(CN1CCCCC1)NS(=O)(=O)c1ccc(Cl)cc1 | inactive |  |
| CCOc1cc(C)c(Cl)cc1S(=O)(=O)NCCOC | inactive |  |
| Cc1cc(NC(=S)N(CCCN2CCN(C)CC2)Cc2ccco2)ccc1Cl | inactive |  |
| COc1ccccc1CNC(=O)CCS(=O)(=O)c1ccc2c(c1)oc(=O)n2C | inconclusive: 29.1 µM [rising, single point] |  |
| Oc1ccc(-c2csc(Nc3ccccn3)n2)c(O)c1 | inactive |  |

Grouped by structure: the entries above containing a CF3 group.

| SMILES | Potency | activity change, negative = cytotoxic |
| --- | --- | --- |
| CN(C)/C=C/C(=O)/C=C/c1cn(-c2ncc(C(F)(F)F)cc2Cl)c2ccccc12 | inconclusive: 20.6 µM [cytotoxic, single point] |  |
| COc1ccc(NCC(=O)Nc2cccc(C(F)(F)F)c2)cc1S(=O)(=O)N1CCOCC1 | inactive |  |

Remaining list, next part:

| SMILES | Potency | activity change, negative = cytotoxic |
| --- | --- | --- |
| CC(=O)c1cccc(CN2CCC(CO)(CCCc3ccccc3)CC2)c1 | inactive |  |
| COc1ccccc1N1CCN(C(=O)c2cccc(Oc3ccccc3)c2)CC1 | inconclusive: 23.1 µM [cytotoxic, partial curve] |  |
| O=C(CC1C(=O)CCCC1=O)c1ccccc1 | inactive |  |
| Cc1ccc(S(=O)(=O)Nc2cc(Cl)c3oc4c(c3c2)CCCC4)cc1 | inconclusive: 13 µM [cytotoxic, partial curve, poor fit] |  |
| CCc1cc(CNC(=O)c2ccc3nc(Cc4ccc(OC)c(OC)c4)oc3c2)on1 | inconclusive: 20.6 µM [cytotoxic, partial curve, poor fit] |  |
| COc1cc(NC(=O)COC(=O)CSc2cc(C)ccc2C)c(C)cc1[N+](=O)[O-] | inactive |  |
| NC(CSC(c1ccccc1)(c1ccccc1)c1ccccc1)C(=O)O (stereo not drawn) | active: 3.66 µM |  |
| COc1ccc(Nc2nc3cc(C)ccc3cc2C#N)cc1 | inactive |  |
| CCCN1C(=O)c2[nH]nc(-c3cc(Cl)c(C)cc3O)c2C1c1ccc(O)c(OC)c1 (stereo not drawn) | inactive |  |
| O=C(Nc1ccnn1C1CCN(C2CCCCC2)CC1)c1ccccc1 | inactive |  |
| O=C(c1cc2sccc2n1Cc1ccc(F)cc1)N1CCCc2ccccc21 | inconclusive: 32.6 µM [cytotoxic, partial curve, poor fit] |  |
| O=C(Nc1nc2ccc(F)cc2s1)c1ccccn1 | inconclusive: 14.6 µM [cytotoxic, partial curve, poor fit] |  |
| CNC(=S)N=Nc1c(O)[nH]c2ccc(C(C)C)cc12 | inconclusive: 29.1 µM [cytotoxic, single point] |  |
| NC1CCc2ccccc21 (stereo not drawn) |  | inconclusive: 9.69% |
| O=C(CN1CCN(C/C=C/c2ccccc2)CC1)Nc1cc([N+](=O)[O-])ccc1Cl | inconclusive: 20.6 µM [cytotoxic, single point] |  |
| C=CCN(c1ccc(F)cc1)S(=O)(=O)c1cc(C(=O)NC2CC2)ccc1Cl | inactive |  |
| Cc1nc([N+](=O)[O-])c(Br)n1Cc1ccccc1 | inconclusive: 23.1 µM [cytotoxic, single point] |  |
| Cc1cc(C(=O)CCl)c(C)n1-c1c(C)n(C)n(-c2ccccc2)c1=O | inconclusive: 23.1 µM [cytotoxic, single point] |  |
| O=C(N1CCN(c2cccc(Cl)c2)CC1)C1(c2cccs2)CCOCC1 | inconclusive: 29.1 µM [cytotoxic, single point] |  |
| O=C(NCC1CCN(Cc2cccc(Cl)c2)CC1)Nc1ccc(F)c(Cl)c1 | inconclusive: 29.1 µM [cytotoxic, single point] |  |
| COc1cccc(-c2csc(N3CCN(CC(=O)NNC(=O)c4ccc(Br)cc4)CC3)n2)c1 | inconclusive: 8.2 µM [cytotoxic, partial curve, poor fit] |  |
| O=C(Nc1ccccc1-c1ccccc1)c1ccc(NC(=O)c2ccco2)cc1 | inconclusive: 32.6 µM [rising, single point] |  |
| CN(CC(=O)Nc1ccc(C(N)=O)cc1)CC(=O)Nc1ccccc1Br |  | inconclusive: 24.1% |

Full records, looked up by structure:
`Cc1cc(C(=O)CCl)c(C)n1-c1c(C)n(C)n(-c2ccccc2)c1=O` is entered as Potency: inconclusive: 23.1 µM [cytotoxic, single point]
`O=c1[nH]c(CN2CCN(c3ccccc3)CC2)nc2scc(-c3ccccc3)c12` is entered as Potency: inconclusive: 4.11 µM [cytotoxic, full curve]
